# Measured values taken from paper PMC12493026.
# Protein sequences, listed by entry. Tags and fused reporters are not part of them.
# UniProt Q8C6M1: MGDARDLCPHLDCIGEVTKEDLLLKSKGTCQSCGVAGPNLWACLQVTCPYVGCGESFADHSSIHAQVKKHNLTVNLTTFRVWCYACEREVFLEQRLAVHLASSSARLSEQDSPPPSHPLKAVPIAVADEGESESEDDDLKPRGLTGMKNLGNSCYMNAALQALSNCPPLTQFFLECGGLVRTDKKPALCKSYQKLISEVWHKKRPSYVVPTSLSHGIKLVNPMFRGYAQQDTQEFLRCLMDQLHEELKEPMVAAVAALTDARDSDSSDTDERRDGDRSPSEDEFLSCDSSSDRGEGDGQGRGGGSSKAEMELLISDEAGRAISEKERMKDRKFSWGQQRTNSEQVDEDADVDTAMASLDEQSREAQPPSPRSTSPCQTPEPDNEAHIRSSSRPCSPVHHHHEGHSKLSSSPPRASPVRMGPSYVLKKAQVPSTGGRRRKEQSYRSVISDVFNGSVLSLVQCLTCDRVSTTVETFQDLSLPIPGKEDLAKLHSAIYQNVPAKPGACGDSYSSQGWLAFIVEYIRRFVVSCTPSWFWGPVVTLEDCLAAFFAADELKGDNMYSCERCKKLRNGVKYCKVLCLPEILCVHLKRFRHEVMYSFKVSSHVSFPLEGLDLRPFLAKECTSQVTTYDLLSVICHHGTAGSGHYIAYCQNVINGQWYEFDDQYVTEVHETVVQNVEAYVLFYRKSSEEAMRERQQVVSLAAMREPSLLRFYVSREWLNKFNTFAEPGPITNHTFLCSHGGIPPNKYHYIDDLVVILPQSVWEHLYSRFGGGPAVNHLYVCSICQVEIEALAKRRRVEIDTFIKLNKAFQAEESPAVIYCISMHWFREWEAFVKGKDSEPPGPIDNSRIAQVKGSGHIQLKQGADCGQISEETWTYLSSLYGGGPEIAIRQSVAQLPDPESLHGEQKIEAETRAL
# UniProt Q8R4B8: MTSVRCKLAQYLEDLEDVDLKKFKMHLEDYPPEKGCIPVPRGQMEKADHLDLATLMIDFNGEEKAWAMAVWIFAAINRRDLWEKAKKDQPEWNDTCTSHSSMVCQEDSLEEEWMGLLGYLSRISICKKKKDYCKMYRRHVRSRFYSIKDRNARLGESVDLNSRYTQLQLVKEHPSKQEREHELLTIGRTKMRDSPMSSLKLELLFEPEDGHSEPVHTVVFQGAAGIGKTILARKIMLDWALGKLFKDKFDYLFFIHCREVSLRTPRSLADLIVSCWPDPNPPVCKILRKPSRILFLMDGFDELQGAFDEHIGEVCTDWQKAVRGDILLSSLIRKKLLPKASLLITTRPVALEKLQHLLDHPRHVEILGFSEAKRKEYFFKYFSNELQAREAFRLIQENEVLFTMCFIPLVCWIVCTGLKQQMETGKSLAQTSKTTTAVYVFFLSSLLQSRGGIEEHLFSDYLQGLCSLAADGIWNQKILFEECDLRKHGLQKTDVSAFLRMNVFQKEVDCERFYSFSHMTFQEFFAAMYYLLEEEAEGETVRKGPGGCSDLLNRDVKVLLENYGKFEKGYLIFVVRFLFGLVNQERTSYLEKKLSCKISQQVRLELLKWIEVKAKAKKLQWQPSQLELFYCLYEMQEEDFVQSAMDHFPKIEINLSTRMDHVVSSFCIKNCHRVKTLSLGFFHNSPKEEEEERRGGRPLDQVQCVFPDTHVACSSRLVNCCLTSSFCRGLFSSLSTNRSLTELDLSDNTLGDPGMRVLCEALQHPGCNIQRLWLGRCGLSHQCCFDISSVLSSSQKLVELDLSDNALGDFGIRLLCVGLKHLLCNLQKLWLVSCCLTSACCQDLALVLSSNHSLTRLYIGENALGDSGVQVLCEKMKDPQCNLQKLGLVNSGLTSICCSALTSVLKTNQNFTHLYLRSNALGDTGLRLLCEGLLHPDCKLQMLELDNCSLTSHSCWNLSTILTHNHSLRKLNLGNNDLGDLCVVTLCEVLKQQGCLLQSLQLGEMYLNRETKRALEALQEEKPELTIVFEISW
# Results are given in words; binding and its absence hold for the method and conditions named. In cells and extracts the contact can be indirect. Some results given as binding are weak or reduced against the parent protein; the word gives no strength.
# Tests used:
# [1] = molecular target: Flag-USP20 (ubiquitin-specific peptidase 20) (UniProt Q8C6M1); assay: co-IP; NIH/3T3 cells co-transfected with Flag-USP20 (WT or mutated) and His-NLRP3; USP20 immunoprecipitated by anti-Flag antibody
# [2] = molecular target: USP20, endogenous in mouse heart tissue (mouse (endogenous in heart tissue)) (UniProt Q8C6M1); assay: co-IP; heart tissue of mice induced by LPS, RIPA lysate; endogenous USP20 immunoprecipitated by anti-USP20, protein G-Sepharose
binding [1],binding [2],Substance
binds,,His-NLRP3 (from UniProt Q8R4B8 1-1033)
,binds,"NLRP3, endogenous in mouse heart tissue (from UniProt Q8R4B8 1-1033)"
